For 8 targets, log2 fold change results are on record in the supplement of paper PMC12819154, “High-throughput peptide-centric local stability assay extends protein–ligand identification to membrane proteins, tissues and bacteria” (Nature Structural & Molecular Biology, 2025).

Chains of the proteins cited; added tags and fusions are not shown. Lines headed by an entry give the natural chain unless they say otherwise; changes in a name come on top.
UniProt P07361: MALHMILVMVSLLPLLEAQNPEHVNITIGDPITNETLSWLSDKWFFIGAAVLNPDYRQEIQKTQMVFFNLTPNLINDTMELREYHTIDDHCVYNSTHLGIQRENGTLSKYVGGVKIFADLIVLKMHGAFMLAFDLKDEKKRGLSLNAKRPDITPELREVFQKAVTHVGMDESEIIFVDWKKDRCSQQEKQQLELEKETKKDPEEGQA
UniProt O88958: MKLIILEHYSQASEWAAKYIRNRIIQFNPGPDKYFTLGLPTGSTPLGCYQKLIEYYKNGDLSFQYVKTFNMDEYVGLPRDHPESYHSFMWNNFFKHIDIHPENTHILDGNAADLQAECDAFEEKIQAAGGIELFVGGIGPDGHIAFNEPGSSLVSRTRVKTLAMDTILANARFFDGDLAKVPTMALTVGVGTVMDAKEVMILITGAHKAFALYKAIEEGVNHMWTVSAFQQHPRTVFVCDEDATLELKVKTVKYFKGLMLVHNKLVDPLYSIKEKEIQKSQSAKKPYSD
UniProt P03930: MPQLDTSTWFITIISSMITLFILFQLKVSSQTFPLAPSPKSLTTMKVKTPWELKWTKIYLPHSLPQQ
UniProt P11438: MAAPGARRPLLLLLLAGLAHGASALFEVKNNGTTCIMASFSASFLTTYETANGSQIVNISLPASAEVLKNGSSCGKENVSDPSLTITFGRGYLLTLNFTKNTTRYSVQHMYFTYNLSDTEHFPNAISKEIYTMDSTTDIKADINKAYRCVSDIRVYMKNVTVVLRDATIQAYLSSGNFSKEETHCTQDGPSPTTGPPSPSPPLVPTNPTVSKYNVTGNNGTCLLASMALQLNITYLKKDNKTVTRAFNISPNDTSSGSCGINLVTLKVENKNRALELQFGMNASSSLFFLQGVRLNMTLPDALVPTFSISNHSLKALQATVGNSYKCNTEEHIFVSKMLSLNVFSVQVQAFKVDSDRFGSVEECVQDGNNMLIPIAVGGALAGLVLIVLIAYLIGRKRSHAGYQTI
UniProt P10493: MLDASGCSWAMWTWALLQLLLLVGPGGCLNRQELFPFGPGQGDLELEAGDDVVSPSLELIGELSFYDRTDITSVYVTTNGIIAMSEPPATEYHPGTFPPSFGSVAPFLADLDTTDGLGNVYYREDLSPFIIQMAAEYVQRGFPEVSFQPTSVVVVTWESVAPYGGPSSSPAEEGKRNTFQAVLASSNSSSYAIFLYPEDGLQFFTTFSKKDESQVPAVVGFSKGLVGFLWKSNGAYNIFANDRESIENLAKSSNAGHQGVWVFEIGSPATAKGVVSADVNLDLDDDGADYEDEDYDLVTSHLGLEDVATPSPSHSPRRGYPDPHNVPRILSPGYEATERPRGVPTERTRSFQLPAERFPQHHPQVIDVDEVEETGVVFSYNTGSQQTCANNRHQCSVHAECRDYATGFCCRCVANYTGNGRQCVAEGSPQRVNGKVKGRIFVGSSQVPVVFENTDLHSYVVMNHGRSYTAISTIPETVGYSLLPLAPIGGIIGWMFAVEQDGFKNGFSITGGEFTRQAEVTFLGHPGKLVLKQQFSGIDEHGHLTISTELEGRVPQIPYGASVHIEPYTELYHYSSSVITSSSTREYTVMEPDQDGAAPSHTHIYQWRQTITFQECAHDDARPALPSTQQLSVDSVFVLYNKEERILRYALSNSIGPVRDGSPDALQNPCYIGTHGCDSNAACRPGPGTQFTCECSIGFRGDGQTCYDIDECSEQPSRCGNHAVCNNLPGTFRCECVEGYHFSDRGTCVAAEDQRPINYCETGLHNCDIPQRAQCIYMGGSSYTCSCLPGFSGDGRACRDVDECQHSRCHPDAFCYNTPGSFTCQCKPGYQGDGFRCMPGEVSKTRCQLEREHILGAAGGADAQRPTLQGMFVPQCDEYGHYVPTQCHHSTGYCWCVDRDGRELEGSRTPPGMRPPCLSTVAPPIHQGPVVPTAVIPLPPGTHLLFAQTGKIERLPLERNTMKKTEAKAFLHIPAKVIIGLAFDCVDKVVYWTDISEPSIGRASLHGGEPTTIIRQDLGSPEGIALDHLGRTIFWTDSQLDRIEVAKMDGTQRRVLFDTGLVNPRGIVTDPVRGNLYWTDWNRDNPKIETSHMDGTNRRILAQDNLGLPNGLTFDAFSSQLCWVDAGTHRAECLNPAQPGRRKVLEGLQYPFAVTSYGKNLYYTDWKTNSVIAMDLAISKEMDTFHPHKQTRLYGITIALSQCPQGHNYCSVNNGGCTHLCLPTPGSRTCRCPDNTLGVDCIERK
UniProt O88907, whole entry: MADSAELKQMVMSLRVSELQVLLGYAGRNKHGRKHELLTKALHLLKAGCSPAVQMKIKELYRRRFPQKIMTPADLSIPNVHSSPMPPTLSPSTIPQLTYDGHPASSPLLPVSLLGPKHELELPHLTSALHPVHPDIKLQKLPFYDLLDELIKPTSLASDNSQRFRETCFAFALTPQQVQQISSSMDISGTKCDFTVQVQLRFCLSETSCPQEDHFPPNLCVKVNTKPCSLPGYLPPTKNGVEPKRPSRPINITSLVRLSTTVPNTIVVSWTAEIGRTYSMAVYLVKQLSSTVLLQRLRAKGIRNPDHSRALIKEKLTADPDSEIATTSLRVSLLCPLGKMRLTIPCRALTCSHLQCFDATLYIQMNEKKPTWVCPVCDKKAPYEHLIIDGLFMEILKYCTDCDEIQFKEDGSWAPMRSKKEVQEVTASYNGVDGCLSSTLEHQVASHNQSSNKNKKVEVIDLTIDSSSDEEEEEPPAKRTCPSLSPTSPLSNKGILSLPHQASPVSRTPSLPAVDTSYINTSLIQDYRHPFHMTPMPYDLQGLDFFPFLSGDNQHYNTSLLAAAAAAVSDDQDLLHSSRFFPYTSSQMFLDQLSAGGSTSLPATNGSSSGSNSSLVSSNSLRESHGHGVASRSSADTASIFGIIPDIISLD
UniProt P10078: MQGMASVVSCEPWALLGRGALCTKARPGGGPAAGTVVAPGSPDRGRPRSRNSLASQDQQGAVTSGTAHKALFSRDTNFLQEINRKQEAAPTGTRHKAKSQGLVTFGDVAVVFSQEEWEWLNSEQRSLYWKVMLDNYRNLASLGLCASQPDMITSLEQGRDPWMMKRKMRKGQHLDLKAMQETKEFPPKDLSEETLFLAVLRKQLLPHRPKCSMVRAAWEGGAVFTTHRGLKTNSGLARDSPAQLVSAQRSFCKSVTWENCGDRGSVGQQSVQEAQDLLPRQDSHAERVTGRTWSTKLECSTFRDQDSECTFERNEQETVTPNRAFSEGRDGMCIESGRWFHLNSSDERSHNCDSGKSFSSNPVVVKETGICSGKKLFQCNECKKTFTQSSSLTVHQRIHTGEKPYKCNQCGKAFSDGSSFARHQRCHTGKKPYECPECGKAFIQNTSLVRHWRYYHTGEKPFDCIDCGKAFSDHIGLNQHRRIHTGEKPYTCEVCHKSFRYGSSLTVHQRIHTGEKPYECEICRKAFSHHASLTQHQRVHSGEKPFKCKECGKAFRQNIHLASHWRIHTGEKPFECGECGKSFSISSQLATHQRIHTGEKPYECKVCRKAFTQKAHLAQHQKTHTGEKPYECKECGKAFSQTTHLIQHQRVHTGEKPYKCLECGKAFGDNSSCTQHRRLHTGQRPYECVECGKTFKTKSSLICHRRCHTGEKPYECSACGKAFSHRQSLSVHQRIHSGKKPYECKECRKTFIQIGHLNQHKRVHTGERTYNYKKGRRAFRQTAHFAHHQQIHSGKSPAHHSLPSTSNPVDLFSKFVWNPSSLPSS

The list shows a part of the results. Most values lie at the level of the controls, where differences are scatter.

Compound in the experiment: CN[C@@H]1C[C@H]2O[C@@](C)([C@@H]1OC)n1c3ccccc3c3c4c(c5c6ccccc6n2c5c31)C(=O)NC4 [staurosporine]
Briefly: log2 fold change of tryptic peptide abundance, ligand vs vehicle (limited proteolysis) (log2 ratio); higher = more trypsin-susceptible (destabilized). The conditions noted are these: ligand concentration: 20 uM; sample: mouse liver crude lysate; replicate design: treated separately.
For the target “UniProt P07361 (peptide sequence: ETKKDPEEGQA, peptide start residue: 197)”, the log2 fold change is -0.359.

Take “UniProt O88958 (peptide sequence: EVMILITGAHK, peptide start residue: 198)”: the log2 fold change was 0.547.

Take “UniProt P03930 (peptide sequence: IYLPHSLPQQ, peptide start residue: 58)”: the log2 fold change was -0.134.

Regarding “UniProt P05480 (peptide sequence: GSLLDFLK, peptide start residue: 325)”, the log2 fold change was 0.273.

Take “UniProt P11438 (peptide sequence: SHAGYQTI, peptide start residue: 399)”: the log2 fold change came to 0.266.

As to “UniProt P10493 (peptide sequence: SFQLPAER, peptide start residue: 350)”, the log2 fold change was -0.124.

“UniProt O88907 (peptide sequence: ESHGHGVASR, peptide start residue: 623)”: the log2 fold change is 0.553.

In the case of “UniProt P10078 (peptide sequence: THTGEKPYECK, peptide start residue: 379)”, the log2 fold change is -0.294.
